Reference: patent publication US7381728B2, “Piperazine derivatives useful for the treatment of gastrointestinal disorders” (Glaxo Group Limited, priority 2004, dated 2008)
Some results were stated once for a whole list of compounds, not compound by compound.

Amino acid sequences for entries named in this document (tags omitted).
UniProt Q92847, whole entry: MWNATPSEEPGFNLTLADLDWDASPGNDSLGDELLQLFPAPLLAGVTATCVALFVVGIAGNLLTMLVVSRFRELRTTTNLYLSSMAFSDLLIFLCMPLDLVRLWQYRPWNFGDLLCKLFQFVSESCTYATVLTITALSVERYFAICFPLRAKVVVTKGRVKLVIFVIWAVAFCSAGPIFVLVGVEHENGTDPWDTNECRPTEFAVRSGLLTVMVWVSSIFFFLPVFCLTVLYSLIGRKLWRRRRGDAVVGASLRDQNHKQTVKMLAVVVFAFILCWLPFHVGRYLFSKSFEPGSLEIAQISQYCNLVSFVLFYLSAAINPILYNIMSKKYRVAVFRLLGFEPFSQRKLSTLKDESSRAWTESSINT

Columns and labels:
Ghrelin Receptor GHS-R [1] = target: T1, Ghrelin Receptor GHS-R (Homo sapiens, UniProt Q92847); assay: GHS-R GTPγS functional agonist assay; format: biochemical; design: The open reading frame of GHS-R was transferred from pCDN into pFastBacmam vector; expressed in transfected cells; host or cells: Membranes of HEK293T cells (Lipofectamine, pCDNA3) or of HEK293F cells (BacMam co-transduction with rat Gαo); details: membranes of HEK293 cells transiently expressing GHS-R (protocols I and II); [35S]GTPγS SPA; read-out: activity in the GHS-R GTPγS functional agonist assays
Ghrelin Receptor GHS-R [2] = target: T1, Ghrelin Receptor GHS-R; assay: GHSR Agonist BACMAM FLIPR Assay; format: cell-based; design: The open reading frame of GHS-R was transferred from pCDN into pFastBacmam vector; expressed in transfected cells; host or cells: HEK MSR II cells or U2OS cells transduced with human GHSR BacMam virus; details: HEK MSR II or U2OS cells transduced with human GHSR BACMAM virus; Fluo 4 calcium fluorescence

Compound	EC50 (Ghrelin Receptor GHS-R [1])	EC50 (Ghrelin Receptor GHS-R [2])
COc1ccc(N2C[C@@H](C)N[C@@H](C)C2)cc1NS(=O)(=O)c1ccc(-c2ccc(C)s2)c(F)c1 [Example 292, N-[5-(cis-3,5-Dimethyl-1-piperazinyl)-2-(methyloxy)phenyl]-3-fluoro-4-(5-methyl-2-thienyl)benzenesulfonamide]	< 1000 nM	< 1000 nM
COc1ccc(NS(=O)(=O)c2ccc(-c3cccc(C)n3)cc2Cl)cc1N1C[C@@H](C)N[C@@H](C)C1 [Example 172, 2-Chloro-N-[3-(cis-3,5-dimethyl-1-piperazinyl)-4-(methyloxy)phenyl]-4-(6-methyl-2-pyridinyl)benzenesulfonamide]	< 1000 nM	< 1000 nM
COc1ccc(N2C[C@@H](C)N[C@@H](C)C2)cc1NS(=O)(=O)c1cc(C)c(Cl)cc1Cl [Example 259, 2,4-Dichloro-N-[5-(cis-3,5-dimethyl-1-piperazinyl)-2-(methyloxy)phenyl]-5-methylbenzenesulfonamide]	< 1000 nM	< 1000 nM
COc1ccc(N2C[C@@H](C)N[C@@H](C)C2)cc1NS(=O)(=O)c1ccc(-c2cccs2)nc1 [Example 273, N-[5-(cis-3,5-Dimethyl-1-piperazinyl)-2-(methyloxy)phenyl]-6-(2-thienyl)-3-pyridinesulfonamide]	< 1000 nM	< 1000 nM
COc1ccc(N2C[C@@H](C)N[C@@H](C)C2)cc1NS(=O)(=O)c1c(Cl)cccc1Cl [Example 257, 2,6-Dichloro-N-[5-(cis-3,5-dimethyl-1-piperazinyl)-2-(methyloxy)phenyl]benzenesulfonamide]	< 1000 nM	< 1000 nM
COc1ccc(Cl)cc1-c1ccc(S(=O)(=O)Nc2ccc(OC)c(N3C[C@@H](C)N[C@@H](C)C3)c2)s1 [Example 219, 5-[5-Chloro-2-(methyloxy)phenyl]-N-[3-(cis-3,5-dimethyl-1-piperazinyl)-4-(methyloxy)phenyl]-2-thiophenesulfonamide]	< 1000 nM	< 1000 nM
COc1ccc(NS(=O)(=O)c2ccc(Br)cc2Cl)cc1N1C[C@@H](C)N[C@@H](C)C1 [Example 51, 4-Bromo-2-chloro-N-[3-(cis-3,5-dimethyl-1-piperazinyl)-4-(methyloxy)phenyl]benzenesulfonamide]	< 1000 nM	< 1000 nM
COc1ccc(N2C[C@@H](C)N[C@@H](C)C2)cc1NS(=O)(=O)c1ccc(-c2cc(C)cs2)cc1C [Example 108, N-[5-(cis-3,5-Dimethyl-1-piperazinyl)-2-(methyloxy)phenyl]-2-methyl-4-(4-methyl-2-thienyl)benzenesulfonamide]	< 1000 nM	< 1000 nM
COc1ccc(NS(=O)(=O)c2ccc(-c3cnco3)cc2)cc1N1C[C@@H](C)N[C@@H](C)C1 [Example 57, N-[3-(cis-3,5-Dimethyl-1-piperazinyl)-4-(methyloxy)phenyl]-4-(1,3-oxazol-5-yl)benzenesulfonamide]	< 1000 nM	< 1000 nM
COc1ccc(NS(=O)(=O)c2ccc(-c3cccs3)cc2OC)cc1N1C[C@@H](C)N[C@@H](C)C1 [Example 237, N-[3-(cis-3,5-Dimethyl-1-piperazinyl)-4-(methyloxy)phenyl]-2-(methyloxy)-4-(2-thienyl)benzenesulfonamide]	< 1000 nM	< 1000 nM
COc1ccc(N2C[C@@H](C)N[C@@H](C)C2)cc1NS(=O)(=O)c1ccc(Br)cc1Cl [Example 104, 4-Bromo-2-chloro-N-[5-(cis-3,5-dimethyl-1-piperazinyl)-2-(methyloxy)phenyl]benzenesulfonamide]	< 1000 nM	< 1000 nM
COc1ccc(N2C[C@@H](C)N[C@@H](C)C2)cc1NS(=O)(=O)c1ccc(-c2cccc(C)n2)cc1F [Example 166, N-[5-(cis-3,5-Dimethyl-1-piperazinyl)-2-(methyloxy)phenyl]-2-fluoro-4-(6-methyl-2-pyridinyl)benzenesulfonamide]	< 1000 nM	< 1000 nM
COc1ccc(N2C[C@@H](C)N[C@@H](C)C2)cc1NS(=O)(=O)c1ccc(-c2ccco2)cc1Cl [Example 308, 2-Chloro-N-[5-(cis-3,5-dimethyl-1-piperazinyl)-2-(methyloxy)phenyl]-4-(2-furanyl)benzenesulfonamide]	< 1000 nM	< 1000 nM
CC(=O)c1ccc(N2C[C@@H](C)N[C@@H](C)C2)cc1NS(=O)(=O)c1ccc(Oc2cccc(Cl)c2C#N)cc1 [Example 24, N-[2-Acetyl-5-(cis-3,5-dimethyl-1-piperazinyl)phenyl]-4-[(3-chloro-2-cyanophenyl)oxy]benzenesulfonamide]	< 1000 nM	< 1000 nM

Other lines, results leading:

EC50 (Ghrelin Receptor GHS-R [1])	EC50 (Ghrelin Receptor GHS-R [2])	Compound
< 1000 nM	< 1000 nM	C[C@@H]1CN(c2cccc(NS(=O)(=O)c3ccc4ccccc4c3)c2)C[C@H](C)N1 [Example 65, N-[3-(cis-3,5-Dimethyl-1-piperazinyl)phenyl]-2-naphthalenesulfonamide]
< 1000 nM	< 1000 nM	COc1ccc(NS(=O)(=O)c2ccc(Cl)c(Cl)c2)cc1N1C[C@@H](C)N[C@@H](C)C1 [Example 30, 3,4-Dichloro-N-[3-(cis-3,5-dimethyl-1-piperazinyl)-4-(methyloxy)phenyl]benzenesulfonamide]
< 1000 nM	< 1000 nM	C[C@@H]1CN(c2cc(NS(=O)(=O)c3ccc(-c4cccs4)cc3)ccc2OC(F)(F)F)C[C@H](C)N1 [Example 245, N-{3-(cis-3,5-Dimethyl-1-piperazinyl)-4-[(trifluoromethyl)oxy]phenyl}-4-(2-thienyl)benzenesulfonamide]
< 1000 nM	< 1000 nM	COc1ccc(NS(=O)(=O)c2cccc3cccc(Cl)c23)cc1N1C[C@@H](C)N[C@@H](C)C1 [Example 12, 8-Chloro-N-[3-(cis-3,5-dimethyl-1-piperazinyl)-4-(methyloxy)phenyl]-1-naphthalenesulfonamide]
< 1000 nM	< 1000 nM	COc1ccc(N2C[C@@H](C)N[C@@H](C)C2)cc1NS(=O)(=O)c1ccc(-c2cccnc2)cc1 [Example 129, N-[5-(cis-3,5-Dimethyl-1-piperazinyl)-2-(methyloxy)phenyl]-4-(3-pyridinyl)benzenesulfonamide]
< 1000 nM	< 1000 nM	C[C@@H]1CN(c2ccc(Cl)c(NS(=O)(=O)c3ccc(-c4ccco4)cc3)c2)C[C@H](C)N1 [Example 299, N-[2-Chloro-5-(cis-3,5-dimethyl-1-piperazinyl)phenyl]-4-(2-furanyl)benzenesulfonamide]
< 1000 nM	< 1000 nM	COc1cc(-c2cc(C)cs2)ccc1S(=O)(=O)Nc1cccc(N2C[C@@H](C)N[C@@H](C)C2)c1 [Example 284, N-[3-(cis-3,5-Dimethyl-1-piperazinyl)phenyl]-2-(methyloxy)-4-(4-methyl-2-thienyl)benzenesulfonamide]
< 1000 nM	< 1000 nM	COc1ccc(N2C[C@@H](C)N[C@@H](C)C2)cc1NS(=O)(=O)c1cccc2ccccc12 [Example 32, N-[5-(cis-3,5-Dimethyl-1-piperazinyl)-2-(methyloxy)phenyl]-1-naphthalenesulfonamide]
< 1000 nM	< 1000 nM	COc1ccc(N2C[C@@H](C)N[C@@H](C)C2)cc1NS(=O)(=O)c1ccc(-c2cccc(C)n2)c(F)c1 [Example 191, N-[5-(cis-3,5-Dimethyl-1-piperazinyl)-2-(methyloxy)phenyl]-3-fluoro-4-(6-methyl-2-pyridinyl)benzenesulfonamide]
